In patent US12729225B2, “Non-canonical SWI/SNF complex and uses thereof” (Dana-Farber Cancer Institute, Inc., priority 2018, dated 2026) one finds Total and Unique data, which are given here for nine molecules.

This series concerns mSWI/SNF complexes. The series is described as follows: mSWI/SNF complex purification with HA-tagged baits and mass spectrometry (peptide counts). Also noted: species or system human.
Setting [1] is: 293_HA-BRD7: HA-BRD7 bait purification, total peptide count per co-purified protein.
The mark [2] stands for this setting: 293_HA-BRD7: HA-BRD7 bait purification, unique peptide count per co-purified protein.
[3] abbreviates: 293_HA-BRD7 bait purification, mass spectrometry, total peptide count per identified protein.
Setting [4] is: 293_HA-BRD7 bait purification, mass spectrometry, unique peptide count per identified protein.

B1: LUC7L2 (protein, UniProt Q9Y383 1-392, looked up)
Putative RNA-binding protein …: MSAQAQMRAMLDQLMGTSRDGDTTRQRIKFSDDRVCKSHLLNCCPHDVLSGTRMDLGECLKVHDLALRADYEIASKEQDFFFELDAMDHLQSFIADCDRRTEVAKKRLAETQEEISAEVAAKAERVHELNEEIGKLLAKVEQLGAEGNVEESQKVMDEVEKARAKKREAEEVYRNSMPASSFQQQKLRVCEVCSAYLGLHDNDRRLADHFGGKLHLGFIEIREKLEELKRVVAEKQEKRNQERLKRREEREREEREKLRRSRSHSKNPKRSRSREHRRHRSRSMSRERKRRTRSKSREKRHRHRSRSSSRSRSRSHQRSRHSSRDRSRERSKRRSSKERFRDQDLASCDRDRSSRDRSPRDRDRKDKKRSYESANGRSEDRRSSEEREAGEI
Turning to B1, the Total under setting [1] is 12. Moreover, under setting [2], the Unique worked out at 11.

B2: FTSJ3 (protein, UniProt Q8IY81 1-847, looked up)
pre-rRNA 2'-O-ribose RNA …: MGKKGKVGKSRRDKFYHLAKETGYRSRSAFKLIQLNRRFQFLQKARALLDLCAAPGGWLQVAAKFMPVSSLIVGVDLVPIKPLPNVVTLQQDITTERCRQALRKELKTWKVDVVLNDGAPNVGASWVHDAYSQAHLTLMALRLACDFLARGGSFITKVFRSRDYQPLLWIFQQLFRRVQATKPQASRHESAEIFVVCQGFLAPDKVDSKFFDPKFAFKEVEVQAKTVTELVTKKKPKAEGYAEGDLTLYHRTSVTDFLRAANPVDFLSKASEIMVDDEELAQHPATTEDIRVCCQDIRVLGRKELRSLLNWRTKLRRYVAKKLKEQAKALDISLSSGEEDEGDEEDSTAGTTKQPSKEEEEEEEEEQLNQTLAEMKAQEVAELKRKKKKLLREQRKQRERVELKMDLPGVSIADEGETGMFSLSTIRGHQLLEEVTQGDMSAADTFLSDLPRDDIYVSDVEDDGDDTSLDSDLDPEELAGVRGHQGLRDQKRMRLTEVQDDKEEEEEENPLLVPLEEKAVLQEEQANLWFSKGSFAGIEDDADEALEISQAQLLFENRRKGRQQQQKQQLPQTPPSCLKTEIMSPLYQDEAPKGTEASSGTEAATGLEGEEKDGISDSDSSTSSEEEESWEPLRGKKRSRGPKSDDDGFEIVPIEDPAKHRILDPEGLALGAVIASSKKAKRDLIDNSFNRYTFNEDEGELPEWFVQEEKQHRIRQLPVGKKEVEHYRKRWREINARPIKKVAEAKARKKRRMLKRLEQTRKKAEAVVNTVDISEREKVAQLRSLYKKAGLGKEKRHVTYVVAKKGVGRKVRRPAGVRGHFKVVDSRMKKDQRAQQRKEQKKKHKRK
Regarding B2, under setting [1], the Total came to 11. Under setting [2], this molecule displayed a Unique of 11.

B3: ALDH1B1 (protein, UniProt P30837 18-517, looked up)
Aldehyde dehydrogenase X, …: RYSSAAALPSPILNPDIPYNQLFINNEWQDAVSKKTFPTVNPTTGEVIGHVAEGDRADVDRAVKAAREAFRLGSPWRRMDASERGRLLNRLADLVERDRVYLASLETLDNGKPFQESYALDLDEVIKVYRYFAGWADKWHGKTIPMDGQHFCFTRHEPVGVCGQIIPWNFPLVMQGWKLAPALATGNTVVMKVAEQTPLSALYLASLIKEAGFPPGVVNIITGYGPTAGAAIAQHVDVDKVAFTGSTEVGHLIQKAAGDSNLKRVTLELGGKSPSIVLADADMEHAVEQCHEALFFNMGQCCCAGSRTFVEESIYNEFLERTVEKAKQRKVGNPFELDTQQGPQVDKEQFERVLGYIQLGQKEGAKLLCGGERFGERGFFIKPTVFGGVQDDMRIAKEEIFGPVQPLFKFKKIEEVVERANNTRYGLAAAVFTRDLDKAMYFTQALQAGTVWVNTYNIVTCHTPFGGFKESGNGRELGEDGLKAYTEVKTVTIKVPQKNS
B3: the Total by setting is: under setting [1], 11; (293_HA-DPF2 purification, total peptides) 1. Besides, the Unique came out at 11 under setting [2] and 1 (293_HA-DPF2 purification, unique peptides).

B4: UPF1 (protein, UniProt Q92900 1-1129, looked up)
Regulator of nonsense …: MSVEAYGPSSQTLTFLDTEEAELLGADTQGSEFEFTDFTLPSQTQTPPGGPGGPGGGGAGGPGGAGAGAAAGQLDAQVGPEGILQNGAVDDSVAKTSQLLAELNFEEDEEDTYYTKDLPIHACSYCGIHDPACVVYCNTSKKWFCNGRGNTSGSHIVNHLVRAKCKEVTLHKDGPLGETVLECYNCGCRNVFLLGFIPAKADSVVVLLCRQPCASQSSLKDINWDSSQWQPLIQDRCFLSWLVKIPSEQEQLRARQITAQQINKLEELWKENPSATLEDLEKPGVDEEPQHVLLRYEDAYQYQNIFGPLVKLEADYDKKLKESQTQDNITVRWDLGLNKKRIAYFTLPKTDSGNEDLVIIWLRDMRLMQGDEICLRYKGDLAPLWKGIGHVIKVPDNYGDEIAIELRSSVGAPVEVTHNFQVDFVWKSTSFDRMQSALKTFAVDETSVSGYIYHKLLGHEVEDVIIKCQLPKRFTAQGLPDLNHSQVYAVKTVLQRPLSLIQGPPGTGKTVTSATIVYHLARQGNGPVLVCAPSNIAVDQLTEKIHQTGLKVVRLCAKSREAIDSPVSFLALHNQIRNMDSMPELQKLQQLKDETGELSSADEKRYRALKRTAERELLMNADVICCTCVGAGDPRLAKMQFRSILIDESTQATEPECMVPVVLGAKQLILVGDHCQLGPVVMCKKAAKAGLSQSLFERLVVLGIRPIRLQVQYRMHPALSAFPSNIFYEGSLQNGVTAADRVKKGFDFQWPQPDKPMFFYVTQGQEEIASSGTSYLNRTEAANVEKITTKLLKAGAKPDQIGIITPYEGQRSYLVQYMQFSGSLHTKLYQEVEIASVDAFQGREKDFIILSCVRANEHQGIGFLNDPRRLNVALTRARYGVIIVGNPKALSKQPLWNHLLNYYKEQKVLVEGPLNNLRESLMQFSKPRKLVNTINPGARFMTTAMYDAREAIIPGSVYDRSSQGRPSSMYFQTHDQIGMISAGPSHVAAMNIPIPFNLVMPPMPPPGYFGQANGPAAGRGTPKGKTGRGGRQKNRFGLPGPSQTNLPNSQASQDVASQPFSQGALTQGYISMSQPSQMSQPGLSQPELSQDSYLGDEFKSQIDVALSQDSTYQGERAYQHGGVTGLSQY
As to B4, under setting [3], the Total turned out to be 1. For the same molecule, the Unique under setting [4] stood at 1.

B5: ##OSGIN2 (protein, UniProt Q9Y236 1-505, looked up)
Oxidative stress-induced …: MPLVEETSLLEDSSVTFPVVIIGNGPSGICLSYMLSGYRPYLSSEAIHPNTILNSKLEEARHLSIVDQDLEYLSEGLEGRSSNPVAVLFDTLLHPDADFGYDYPSVLHWKLEQHHYIPHVVLGKGPPGGAWHNMEGSMLTISFGSWMELPGLKFKDWVSSKRRSLKGDRVMPEEIARYYKHYVKVMGLQKNFRENTYITSVSRLYRDQDDDDIQDRDISTKHLQIEKSNFIKRNWEIRGYQRIADGSHVPFCLFAENVALATGTLDSPAHLEIEGEDFPFVFHSMPEFGAAINKGKLRGKVDPVLIVGSGLTAADAVLCAYNSNIPVIHVFRRRVTDPSLIFKQLPKKLYPEYHKVYHMMCTQSYSVDSNLLSDYTSFPEHRVLSFKSDMKCVLQSVSGLKKIFKLSAAVVLIGSHPNLSFLKDQGCYLGHKSSQPITCKGNPVEIDTYTYECIKEANLFALGPLVGDNFVRFLKGGALGVTRCLATRQKKKHLFVERGGGDGIA
Under setting [3], B5 showed a Total of 1. Under setting [4], this molecule returned a Unique of 1.

B6: DDX27 (protein, UniProt Q96GQ7 1-765, looked up)
Probable ATP-dependent RNA …: MLADLGLIGTIGEDDEVPVEPESDSGDEEEEGPIVLGRRQKALGKNRSADFNPDFVFTEKEGTYDGSWALADVMSQLKKKRAATTLDEKIEKVRKKRKTEDKEAKSGKLEKEKEAKEGSEPKEQEDLQENDEEGSEDEASETDYSSADENILTKADTLKVKDRKKKKKKGQEAGGFFEDASQYDENLSFQDMNLSRPLLKAITAMGFKQPTPIQKACIPVGLLGKDICACAATGTGKTAAFALPVLERLIYKPRQAPVTRVLVLVPTRELGIQVHSVTRQLAQFCNITTCLAVGGLDVKSQEAALRAAPDILIATPGRLIDHLHNCPSFHLSSIEVLILDEADRMLDEYFEEQMKEIIRMCSHHRQTMLFSATMTDEVKDLASVSLKNPVRIFVNSNTDVAPFLRQEFIRIRPNREGDREAIVAALLTRTFTDHVMLFTQTKKQAHRMHILLGLMGLQVGELHGNLSQTQRLEALRRFKDEQIDILVATDVAARGLDIEGVKTVINFTMPNTIKHYVHRVGRTARAGRAGRSVSLVGEDERKMLKEIVKAAKAPVKARILPQDVILKFRDKIEKMEKDVYAVLQLEAEEKEMQQSEAQINTAKRLLEKGKEAVVQEPERSWFQTKEERKKEKIAKALQEFDLALRGKKKRKKFMKDAKKKGEMTAEERSQFEILKAQMFAERLAKRNRRAKRARAMPEEEPVRGPAKKQKQGKKSVFDEELTNTSKKALKQYRAGPSFEERKQLGLPHQRRGGNFKSKSRYKRRK
Under setting [1], B6 registered a Total of 11. Besides, under setting [2], the Unique is given as 11.

B7: NOL7 (protein, UniProt Q9UMY1 1-257, looked up)
U3 small nucleolar …: MVQLRPRASRAPASAEAMVDEGQLASEEEEAEHGLLLGQPSSGAAAEPLEEDEEGDDEFDDEAPEELTFASAQAEAREEERRVRETVRRDKTLLKEKRKRREELFIEQKKRKLLPDTILEKLTTASQTNIKKSPGKVKEVNLQKKNEDCEKGNDSKKVKVQKVQSVSQNKSYLAVRLKDQDLRDSRQQAAQAFIHNSLYGPGTNRTTVNKFLSLANKRLPVKRAAVQFLNNAWGIQKKQNAKRFKRRWMVRKMKTKK
Under setting [3], B7 had a Total of 1. Moreover, the Unique under setting [4] turned out to be 1.

B8: FBXL18 (protein, UniProt Q96ME1 1-718, looked up)
F-box/LRR-repeat protein 18: MASSGEDISNDDDDMHPAAAGMADGVHLLGFSDEILLHILSHVPSTDLILNVRRTCRKLAALCLDKSLIHTVLLQKDYQASEDKVRQLVKEIGREIQQLSMAGCYWLPGSTVEHVARCRSLVKVNLSGCHLTSLRLSKMLSALQHLRSLAIDVSPGFDASQLSSECKATLSRVRELKQTLFTPSYGVVPCCTSLEKLLLYFEILDRTREGAILSGQLMVGQSNVPHYQNLRVFYARLAPGYINQEVVRLYLAVLSDRTPQNLHAFLISVPGSFAESGATKNLLDSMARNVVLDALQLPKSWLNGSSLLQHMKFNNPFYFSFSRCTLSGGHLIQQVINGGKDLRSLASLNLSGCVHCLSPDSLLRKAEDDIDSSILETLVASCCNLRHLNLSAAHHHSSEGLGRHLCQLLARLRHLRSLSLPVCSVADSAPRADRAPAQPAMHAVPRGFGKKVRVGVQSCPSPFSGQACPQPSSVFWSLLKNLPFLEHLELIGSNFSSAMPRNEPAIRNSLPPCSRAQSVGDSEVAAIGQLAFLRHLTLAQLPSVLTGSGLVNIGLQCQQLRSLSLANLGMMGKVVYMPALSDMLKHCKRLRDLRLEQPYFSANAQFFQALSQCPSLQRLCLVSRSGTLQPDAVLAFMARCLQVVMCHLFTGESLATCKSLQQSLLRSFQAERPALNVVIFPLLHEGLTDVIRDVPLVHLDEITLFKSRVAEEPPNLWW
B8: under setting [3], the Total stood at 1. This molecule also displayed a Unique under setting [4] of 1.

B9: ##FRG2B (protein, UniProt Q96QU4 1-278, looked up)
Protein FRG2-like-1: MGKGNEDPDLHCSSIQCSTDQPPFQQISFTEKGSDEKKPFKEKGKTAFSHSSEKHIQRQGSEPNPNKENSEETKLKAGNSTAGSEPESSSYRENCRKRKMSSKDSCQDTAGNCPEKECSLSLNKKSRSSTPVHNSEIQETCDAHHRGRSRACTGRSKRHRSRALGVQTPSIRKSLVTSVRAMSEAVYQDLAQVWAQQIHSPLTCEQLTLLTRLRGPLCAQVQTLYSMATQAAYVFPAESWLVPATLPGPGESALDREAHPFPGQEITETVSGSDEAKL
Turning to B9, the Total under setting [3] is reported as 1. The molecule further came in with a Unique under setting [4] of 1.
